# The list shows a part of the results. Many values rest on one well or one pass, so single values are uncertain.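 Imaging used 1,536-well plates; nuclei positive for cleaved PARP by antibody were divided by total DNA-stained nuclei to yield the apoptosis fraction. Doses for screening kept most cells viable, and cell lines differ markedly in resting and induced cleaved-PARP levels.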
# Assays:
# Assay in all cases: cleaved PARP positive nuclei fraction relative to DMSO control; melanoma cells; higher = more apoptosis
# Settings in all cases: library dose: low library concentration; 72 h
# WM115 = tested on: WM115
# WM1716 = tested on: WM1716
# WM1745 = tested on: WM1745
# WM3526 = tested on: WM3526
# WM3619 = tested on: WM3619
# WM451Lu = tested on: WM451Lu
SMILES,cleaved PARP positive nuclei fraction (WM115) [%],cleaved PARP positive nuclei fraction (WM1716) [%],cleaved PARP positive nuclei fraction (WM1745) [%],cleaved PARP positive nuclei fraction (WM3526) [%],cleaved PARP positive nuclei fraction (WM3619) [%],cleaved PARP positive nuclei fraction (WM451Lu) [%]
"O=C(/C=C/c1cccnc1)NCCCCC1CCN(C(=O)c2ccccc2)CC1 + COc1ccc(C2=N[C@@H](c3ccc(Cl)cc3)[C@@H](c3ccc(Cl)cc3)N2C(=O)N2CCNC(=O)C2)c(OC(C)C)c1 [Nutlin-3] (first compound 0.01 µM, partner dose 0.1 µM)",40.6,27,95.9,80.7,112,177
"COc1cc([C@@H]2c3cc4c(cc3[C@@H](O[C@@H]3O[C@@H]5CO[C@@H](C)O[C@H]5[C@H](O)[C@H]3O)[C@H]3COC(=O)[C@H]23)OCO4)cc(OC)c1O [etoposide] + Cn1nnc2c(C(N)=O)ncn2c1=O [temozolomide] (first compound 0.02 µM, partner dose 2 µM)",134,91.5,110,45.3,106,48.4
"CCCCCCCCCCCCCCCCCCOP(=O)([O-])OC1CC[N+](C)(C)CC1 [Perifosine] + CN(NC(=O)CC(=O)NN(C)C(=S)c1ccccc1)C(=S)c1ccccc1 [STA4783] (first compound 0.4 µM, partner dose 0.006 µM)",206,378,130,41.6,101,45.5
"O=c1[nH]nc(Sc2ncc([N+](=O)[O-])s2)n1-c1ccc2c(c1)OCCO2 + NC(=O)Nc1cc(-c2cccc(F)c2)sc1C(=O)N[C@H]1CCCNC1 [AZD7762] (first compound 0.2 µM, partner dose 0.02 µM)",48.7,71.9,218,65.3,146,59.2
"CCCCCCCCCCCCCCCCCCOP(=O)([O-])OC1CC[N+](C)(C)CC1 [Perifosine] + Nc1cccc2c1CN(C1CCC(=O)NC1=O)C2=O [lenalidomide] (first compound 0.4 µM, partner dose 1 µM)",78.7,96.9,95.3,116,112,88.5
"N#CC[C@H](C1CCCC1)n1cc(-c2ncnc3[nH]ccc23)cn1 [ruxolitinib] + Cn1cc(/C=C2\C(=O)Nc3cccnc32)c2ccccc21 [GW441756] (first compound 1 µM, partner dose 0.4 µM)",173,58.8,89,63.8,89.5,131
"COc1cc([C@@H]2c3cc4c(cc3[C@@H](O[C@@H]3O[C@@H]5CO[C@@H](C)O[C@H]5[C@H](O)[C@H]3O)[C@H]3COC(=O)[C@H]23)OCO4)cc(OC)c1O [etoposide] + C[C@]1(c2nc3c(C(N)=O)cccc3[nH]2)CCCN1 [Veliparib] (first compound 0.02 µM, partner dose 1.4 µM)",157,79.5,105,18,99,23.3
"N#CC[C@H](C1CCCC1)n1cc(-c2ncnc3[nH]ccc23)cn1 [ruxolitinib] + CS(=O)(=O)CCNCc1ccc(-c2ccc3ncnc(Nc4ccc(OCc5cccc(F)c5)c(Cl)c4)c3c2)o1 [lapatinib] (first compound 1 µM, partner dose 0.8 µM)",101,133,83.9,70,96.5,234
"CCCCCCCCCCCCCCCCCCOP(=O)([O-])OC1CC[N+](C)(C)CC1 [Perifosine] + CS(=O)(=O)CCNCc1ccc(-c2ccc3ncnc(Nc4ccc(OCc5cccc(F)c5)c(Cl)c4)c3c2)o1 [lapatinib] (first compound 0.4 µM, partner dose 0.8 µM)",136,176,105,32,91.1,95.1
"O=C(/C=C/c1cccnc1)NCCCCC1CCN(C(=O)c2ccccc2)CC1 + Cc1ccc(Nc2nccc(N(C)c3ccc4c(C)n(C)nc4c3)n2)cc1S(N)(=O)=O [Pazopanib] (first compound 0.01 µM, partner dose 0.4 µM)",104,73.6,114,73.6,238,75.6
"O=C(Nc1cc(C(F)(F)F)cc(C(F)(F)F)c1)c1cc(Cl)ccc1O + O=c1cc(-c2cccc3c2Sc2ccccc2S3)oc(N2CCOCC2)c1 [KU55933] (first compound 0.016 µM, partner dose 1 µM)",108,57.6,176,242,88.1,102
"CC[C@]1(O)C[C@H]2CN(CCc3c([nH]c4ccccc34)[C@@](C(=O)OC)(c3cc4c(cc3OC)N(C=O)[C@H]3[C@@](O)(C(=O)OC)[C@H](OC(C)=O)[C@]5(CC)C=CCN6CC[C@]43[C@@H]65)C2)C1 [vincristine] + CCCCCCCCCCCCCCCCCCOP(=O)([O-])OC1CC[N+](C)(C)CC1 [Perifosine] (first compound 0.0001 µM, partner dose 0.4 µM)",1200,159,190,125,253,140
"COc1cc([C@@H]2c3cc4c(cc3[C@@H](O[C@@H]3O[C@@H]5CO[C@@H](C)O[C@H]5[C@H](O)[C@H]3O)[C@H]3COC(=O)[C@H]23)OCO4)cc(OC)c1O [etoposide] + CN1CCN(c2ccc3nc(-c4c(N)c5c(F)cccc5[nH]c4=O)[nH]c3c2)CC1 [Dovitinib] (first compound 0.02 µM, partner dose 0.1 µM)",171,54.8,104,20.2,102,113
"O=c1[nH]nc(Sc2ncc([N+](=O)[O-])s2)n1-c1ccc2c(c1)OCCO2 + CS(=O)(=O)c1ccc(C(=O)Nc2ccc(Cl)c(-c3ccccn3)c2)c(Cl)c1 [vismodegib] (first compound 0.2 µM, partner dose 1 µM)",22.3,252,82.2,85.5,70.7,112
"O=C(/C=C/c1cccnc1)NCCCCC1CCN(C(=O)c2ccccc2)CC1 + O=C(CCCCCCC(=O)Nc1ccccc1)NO [vorinostat] (first compound 0.01 µM, partner dose 0.08 µM)",51.3,105,98.6,174,109,229
"Cc1ccc(Nc2nccc(N(C)c3ccc4c(C)n(C)nc4c3)n2)cc1S(N)(=O)=O [Pazopanib] + CCN(CC)CCCCNc1ncc2cc(-c3cc(OC)cc(OC)c3)c(NC(=O)NC(C)(C)C)nc2n1 [PD173074] (first compound 0.4 µM, partner dose 0.1 µM)",63,110,89.5,233,109,68.8
"N#CC[C@H](C1CCCC1)n1cc(-c2ncnc3[nH]ccc23)cn1 [ruxolitinib] + COc1cc(N2CCC(N3CCN(C)CC3)CC2)ccc1Nc1ncc(Cl)c(Nc2ccccc2S(=O)(=O)C(C)C)n1 [NVP-TAE684] (first compound 1 µM, partner dose 0.08 µM)",80,41.9,100,79.4,90.5,105
"CC[C@]1(O)C[C@H]2CN(CCc3c([nH]c4ccccc34)[C@@](C(=O)OC)(c3cc4c(cc3OC)N(C=O)[C@H]3[C@@](O)(C(=O)OC)[C@H](OC(C)=O)[C@]5(CC)C=CCN6CC[C@]43[C@@H]65)C2)C1 [vincristine] + COc1cc([C@@H]2c3cc4c(cc3[C@@H](O[C@@H]3O[C@@H]5CO[C@@H](C)O[C@H]5[C@H](O)[C@H]3O)[C@H]3COC(=O)[C@H]23)OCO4)cc(OC)c1O [etoposide] (first compound 0.0001 µM, partner dose 0.02 µM)",868,76,120,83.8,138,173
"O=c1[nH]nc(Sc2ncc([N+](=O)[O-])s2)n1-c1ccc2c(c1)OCCO2 + O=c1cc(-c2cccc3c2Sc2ccccc2S3)oc(N2CCOCC2)c1 [KU55933] (first compound 0.2 µM, partner dose 1 µM)",66.4,24,82,270,106,79.5
"Cc1ccc(Nc2nccc(N(C)c3ccc4c(C)n(C)nc4c3)n2)cc1S(N)(=O)=O [Pazopanib] + COCC[n+]1c2c(n(Cc3cnccn3)c1C)C(=O)c1ccccc1C2=O [YM155] (first compound 0.4 µM, partner dose 0.0004 µM)",95.6,208,101,102,96.9,77.1
"Cc1cc(Nc2cc(N3CCN(C)CC3)nc(Sc3ccc(NC(=O)C4CC4)cc3)n2)n[nH]1 [Tozasertib] + O=C(O)[C@@H]1[O][Sb](=[O])([O][Sb]2(=[O])[O][C@H]([C@H](O)CO)[C@H](O)[C@H](C(=O)O)[O]2)[O][C@H]([C@H](O)CO)[C@@H]1O [stibogluconate] (first compound 0.006 µM, partner dose 2 µM)",83.6,71.4,108,131,100,26.4
"O=C(/C=C/c1cccnc1)NCCCCC1CCN(C(=O)c2ccccc2)CC1 + Cn1cncc1[C@@](N)(c1ccc(Cl)cc1)c1ccc2c(c1)c(-c1cccc(Cl)c1)cc(=O)n2C [tipifarnib] (first compound 0.01 µM, partner dose 0.01 µM)",397,179,85.5,65.6,109,55.6

# Individual results from the entries so far:
# Value of O=C(/C=C/c1cccnc1)NCCCCC1CCN(C(=O)c2ccccc2)CC1 + O=C(CCCCCCC(=O)Nc1ccccc1)NO [vorinostat] (first compound 0.01 µM, partner dose 0.08 µM) under cleaved PARP positive nuclei fraction (WM3526) [%]: 174
# Value of O=C(/C=C/c1cccnc1)NCCCCC1CCN(C(=O)c2ccccc2)CC1 + Cc1ccc(Nc2nccc(N(C)c3ccc4c(C)n(C)nc4c3)n2)cc1S(N)(=O)=O [Pazopanib] (first compound 0.01 µM, partner dose 0.4 µM) under cleaved PARP positive nuclei fraction (WM115) [%]: 104
